# Experiments:
# [1] = Reaction of spin traps with oxidant in CAPD dialysate, ESR detection; details: three-line signal
# Experimental: (§1) ESR spectra were obtained using a prototype spectrometer (Jeol (U.K) Ltd., Welwyn Garden City, England) equipped with a TE011 cylindrical cavity. Samples were analysed at room temperature in a WG-LC-11 quartz flat cell (Wilmad-Glass, Buena, N.J.). In general the instrument parameters were: microwave frequency 9.2 GHz, microwave power 4 mW, centre field (CF) 336.7 mT, sweep width (SW) ±5 mT, number of data points 4095, modulation frequency 100 kHz. For the spin traps reacted with horseradish peroxidase/H2O2/sulphite: sweep time 200 s, time constraint 0.1 s, modulation width 0.05. For the spin traps reacted with the oxidant and NO; sweep time 150 s, time constraint 0.3 s, modulation width 0.2 mT. A JEOL ES-DM1 digital manganese oxide marker (0.03 mm of the glass tube inserted per unit on the dial setting) with a dial setting of 500 was used to ensure the reproducibility between samples and to identify the position of the signals in the microwave field.
# Dialysate from a patient with renal failure on Continuous Ambulatory Peritoneal Dialysis (CAPD) was used for this study. […]
# Solutions of 10 mM DBNBS and DCNBS (5, 8, 12, 25 and 30 μl for final concentrations of 0.5, 0.8, 1.2, 2.5 and 3.0 mM) were added to 60 μl of the dialysate. […] The reaction mixture was mixed thoroughly and analysed by ESR spectroscopy after 25 min incubation at room temperature.
# [2] = Spin trapping of SO3− (horseradish peroxidase/H2O2/sulphite), ESR detection; details: SO3− adduct
# Experimental: as §1
# Solutions of the spin traps DBNBS, DCNBS and DMNBS (40 mM) (25, 50, […], 110.75, 125 and 156.25 μl for final concentrations of 4, 8, 14.68, 17.72, 20 and 25 mM in PBS) were added to 8 μl horseradish peroxidase (91 μM in PBS), 8 μl K2SO3 (100 mM in water) and 12.5 μl H2O2 (5 mM in PBS). […] The reaction mixture was mixed thoroughly and analysed by ESR spectroscopy after 25 min incubation at room temperature. […]
Structure (SMILES),peak width of ESR signal [1] [mT],line width of the ESR signal [2] [mT]
"O=Nc1c(Br)cc(S(=O)(=O)[O-])cc1Br.[Na+] [DBNBS, 3,5-dibromo-4-nitrosobenzenesulphonate, sodium salt, reference compound]",0.495,0.087
"O=Nc1c(Cl)cc(S(=O)(=O)[O-])cc1Cl.[Na+] [DCNBS, 3,5-Dichloro-4-nitrosobenzenesulphonate, Sodium Salt]",0.306,0.085

# Source: patent US6767715B2, “Nitroso compounds and their use as spin traps” (Randox Laboratories Ltd., priority 2000, dated 2004)
